PubChem BioAssay AID1508587 | Peter MacCallum Cancer Centre – 2020

Assay: 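Follow-up of vemurafenib sensitisers scored by lactate made per cell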 (follow-up of hits)
Cell system: human WM266.4 melanoma cells with a BRAF V600 mutation
Reagent: single siRNA against human genes, 25 nM
Duration: 96 h
Challenge: vemurafenib 300 nM (about IC25), given 48 h after transfection for 48 h
Measured: 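Per-cell lactate from absorbance divided by DAPI nucleus counts, compared with and without vemurafenib, relative to non-targeting siRNA, mean of 2 replicates; nuclear counts also give cell number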
Reading the numbers: lactate per cell, drug vs no drug: higher = less drug-induced drop in lactate per cell; lactate per cell with vemurafenib: higher = more lactate per cell under drug; lactate per cell without drug: higher = more lactate per cell without drug; cell growth with vemurafenib: higher = more cell growth over 48 h
Hit rule: 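a duplex is active when its lactate-per-cell ratio with versus without drug falls under 0.55, i.e. 2 SD below non-targeting; a gene is confirmed if 2 or more of 4 duplexes pass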
The whole screen tested about 1,600 reagents; this is an unselected part. Of all reagents, 623 (39%) were called active. 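Calls are for each duplex; lactate ratios contain extreme outliers.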 A number with no mark means an inactive call. Reagents against one gene are numbered here. Further read-outs or replicates are left out here.

Target gene | reagent no. | lactate per cell, drug vs no drug | lactate per cell with vemurafenib | lactate per cell without drug | cell growth with vemurafenib
CCDC159 (GeneID 126075) | 1 | 0.56 | 1.29 | 1.73 | 0.18
CCDC159 (GeneID 126075) | 2 | 0.62 | 0.98 | 1.13 | 0.5
CCDC159 (GeneID 126075) | 3 | 0.54 (active) | 1.04 | 1.37 | 0.25
CCDC159 (GeneID 126075) | 4 | 0.86 | 1.44 | 1.19 | -0.09
C5orf22 (GeneID 55322) | 1 | 0.64 | 1.75 | 1.87 | 0.39
C5orf22 (GeneID 55322) | 2 | 0.54 (active) | 1.71 | 2.15 | 0.43
C5orf22 (GeneID 55322) | 3 | 0.7 | 2.41 | 2.43 | -0.09
C5orf22 (GeneID 55322) | 4 | 0.67 | 1.17 | 1.21 | 0.36
ZNF829 (GeneID 374899) | 1 | 0.46 (active) | 1.02 | 1.44 | 0.28
ZNF829 (GeneID 374899) | 2 | 0.65 | 1.22 | 1.34 | 0.39
ZNF829 (GeneID 374899) | 3 | 0.51 (active) | 0.97 | 1.17 | 0.76
ZNF829 (GeneID 374899) | 4 | 0.52 (active) | 1.03 | 1.23 | 0.37
ING5 (GeneID 84289) | 1 | 0.52 (active) | 1.41 | 1.87 | 0.83
ING5 (GeneID 84289) | 2 | 0.66 | 1.5 | 1.57 | 0.19
ING5 (GeneID 84289) | 3 | 0.7 | 1.17 | 1.18 | 0.61
ING5 (GeneID 84289) | 4 | 0.52 (active) | 1 | 1.29 | 0.59
WASHC2C (GeneID 253725) | 1 | 0.7 | 1.3 | 1.23 | 0.47
WASHC2C (GeneID 253725) | 2 | 0.64 | 2.42 | 2.51 | 0.19
WASHC2C (GeneID 253725) | 3 | 0.62 | 0.69 | 0.74 | 0.12
WASHC2C (GeneID 253725) | 4 | 0.68 | 1.77 | 1.68 | 0.56
QPRT (GeneID 23475) | 1 | 0.4 (active) | 0.56 | 0.93 | -0.06
QPRT (GeneID 23475) | 2 | 0.55 | 1.56 | 1.92 | 0.4
QPRT (GeneID 23475) | 3 | 0.58 | 1.25 | 1.42 | 0.4
QPRT (GeneID 23475) | 4 | 0.64 | 1.36 | 1.4 | 0.63

Continued, starting with the last 2 of the part before.
Target gene | reagent no. | lactate per cell, drug vs no drug | lactate per cell with vemurafenib | lactate per cell without drug | cell growth with vemurafenib
QPRT (GeneID 23475) | 3 | 0.58 | 1.25 | 1.42 | 0.4
QPRT (GeneID 23475) | 4 | 0.64 | 1.36 | 1.4 | 0.63
PHYHD1 (GeneID 254295) | 1 | 0.61 | 1.19 | 1.27 | 0.84
PHYHD1 (GeneID 254295) | 2 | 0.51 (active) | 1.13 | 1.44 | 0.62
PHYHD1 (GeneID 254295) | 3 | 0.89 | 2.88 | 2.15 | -0.05
PHYHD1 (GeneID 254295) | 4 | 0.55 | 0.97 | 1.16 | 0.8
BCORL1 (GeneID 63035) | 1 | 0.7 | 2.4 | 2.17 | 0.33
BCORL1 (GeneID 63035) | 2 | 0.72 | 1.23 | 1.06 | 1.14
BCORL1 (GeneID 63035) | 3 | 0.22 (active) | 0.28 | 0.8 | -0.04
BCORL1 (GeneID 63035) | 4 | 0.48 (active) | 0.86 | 1.1 | 0.78
WNT8A (GeneID 7478) | 1 | 0.48 (active) | 0.86 | 1.12 | 0.24
WNT8A (GeneID 7478) | 2 | 0.86 | 2.82 | 2.03 | 0.12
WNT8A (GeneID 7478) | 3 | 0.94 | 2.86 | 1.88 | 0.01
WNT8A (GeneID 7478) | 4 | 0.45 (active) | 1.14 | 1.54 | 0.58
SCAMP2 (GeneID 10066) | 1 | 0.73 | 1.66 | 1.48 | 0.33
SCAMP2 (GeneID 10066) | 2 | 0.47 (active) | 1.04 | 1.46 | 0.61
SCAMP2 (GeneID 10066) | 3 | 0.42 (active) | 0.7 | 1.08 | 0.28
SCAMP2 (GeneID 10066) | 4 | 0.56 | 1.23 | 1.44 | 0.74
CGAS (GeneID 115004) | 1 | 0.64 | 0.74 | 0.84 | 0.1
CGAS (GeneID 115004) | 2 | 0.58 | 0.88 | 1.12 | 1.04
CGAS (GeneID 115004) | 3 | 0.54 (active) | 0.58 | 0.76 | 0.74
CGAS (GeneID 115004) | 4 | 0.5 (active) | 1.01 | 1.45 | 0.41
KCNH8 (GeneID 131096) | 1 | 0.52 (active) | 0.78 | 0.94 | 0.05
KCNH8 (GeneID 131096) | 2 | 0.84 | 1.54 | 1.17 | 0.03
KCNH8 (GeneID 131096) | 3 | 0.66 | 1.12 | 1.06 | 0.75
KCNH8 (GeneID 131096) | 4 | 0.76 | 1.2 | 1.02 | 0.13
GCK (GeneID 2645) | 1 | 0.07 (active) | 0.1 | 0.94 | 0.05
GCK (GeneID 2645) | 2 | 0.61 | 1.53 | 1.6 | 0.34
GCK (GeneID 2645) | 3 | 0.51 (active) | 0.98 | 1.19 | 0.91
GCK (GeneID 2645) | 4 | 0.83 | 1.61 | 1.27 | 0.35
